Laboratory results taken from doi:10.1101/526152.
Results are given in words; binding and its absence hold for the method and conditions named. Binding seen in cells or lysates may run through a third protein. For some assays here: A result given as binding can be weak or reduced; the word gives no strength.

Amino acid sequences for entries named in this document (tags omitted). A change or cut given only in a name is not applied to a line headed by its entry. Residues count along the entry.
UniProt P46940: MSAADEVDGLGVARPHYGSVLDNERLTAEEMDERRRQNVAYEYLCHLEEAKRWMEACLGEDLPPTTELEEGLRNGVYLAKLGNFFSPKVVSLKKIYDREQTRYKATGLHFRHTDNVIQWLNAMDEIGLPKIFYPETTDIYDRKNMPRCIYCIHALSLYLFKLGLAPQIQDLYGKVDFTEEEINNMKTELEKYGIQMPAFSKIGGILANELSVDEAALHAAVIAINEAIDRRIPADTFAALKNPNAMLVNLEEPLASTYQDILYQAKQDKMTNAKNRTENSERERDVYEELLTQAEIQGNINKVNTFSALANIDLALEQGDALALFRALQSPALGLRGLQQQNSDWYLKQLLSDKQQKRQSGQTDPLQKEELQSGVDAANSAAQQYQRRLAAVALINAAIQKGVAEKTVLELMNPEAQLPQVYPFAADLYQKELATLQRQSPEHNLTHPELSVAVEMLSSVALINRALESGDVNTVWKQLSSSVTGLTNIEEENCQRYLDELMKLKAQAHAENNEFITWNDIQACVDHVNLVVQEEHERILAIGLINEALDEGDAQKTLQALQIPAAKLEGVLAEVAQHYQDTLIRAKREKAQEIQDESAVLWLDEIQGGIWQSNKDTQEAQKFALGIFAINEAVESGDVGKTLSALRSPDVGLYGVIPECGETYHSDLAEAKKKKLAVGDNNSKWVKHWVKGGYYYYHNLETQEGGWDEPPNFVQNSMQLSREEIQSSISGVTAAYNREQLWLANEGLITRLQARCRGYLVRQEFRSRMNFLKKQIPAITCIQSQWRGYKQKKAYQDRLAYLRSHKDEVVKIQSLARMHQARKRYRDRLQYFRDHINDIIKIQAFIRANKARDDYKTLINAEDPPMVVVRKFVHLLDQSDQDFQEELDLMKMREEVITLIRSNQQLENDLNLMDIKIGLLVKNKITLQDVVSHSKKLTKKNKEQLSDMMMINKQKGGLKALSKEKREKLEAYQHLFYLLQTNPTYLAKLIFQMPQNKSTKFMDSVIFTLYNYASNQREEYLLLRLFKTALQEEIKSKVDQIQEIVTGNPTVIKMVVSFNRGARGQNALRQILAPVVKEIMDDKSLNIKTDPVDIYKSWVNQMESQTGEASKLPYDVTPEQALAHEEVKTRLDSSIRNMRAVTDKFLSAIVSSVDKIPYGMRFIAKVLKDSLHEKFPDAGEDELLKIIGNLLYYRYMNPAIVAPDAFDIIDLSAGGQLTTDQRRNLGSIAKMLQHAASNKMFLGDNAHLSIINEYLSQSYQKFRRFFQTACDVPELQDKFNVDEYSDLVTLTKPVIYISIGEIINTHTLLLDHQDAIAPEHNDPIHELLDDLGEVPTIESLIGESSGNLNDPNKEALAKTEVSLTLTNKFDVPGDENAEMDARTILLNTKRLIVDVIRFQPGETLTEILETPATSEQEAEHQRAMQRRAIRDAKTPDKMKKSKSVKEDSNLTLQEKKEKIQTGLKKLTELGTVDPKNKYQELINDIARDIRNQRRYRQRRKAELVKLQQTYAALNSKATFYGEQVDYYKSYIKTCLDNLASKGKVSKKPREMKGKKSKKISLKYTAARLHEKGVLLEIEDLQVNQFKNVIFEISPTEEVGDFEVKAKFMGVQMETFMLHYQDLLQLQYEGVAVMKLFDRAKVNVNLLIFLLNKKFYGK
GST-IQGAP1-N (aa 1–863): residues 1-863 of P46940
GST-IQGAP1-C (aa 746–1657): residues 746-1657 of P46940

Assays:
[1] = biological target: GST-IQGAP1-C (aa 746–1657) (human) (UniProt P46940); test: pull-down
[2] = biological target: GST-IQGAP1-N (aa 1–863) (human) (UniProt P46940); test: pull-down
[3] = biological target: IQ motif-containing GTPase-activating protein 1 (IQGAP1) (human (endogenous in skin fibroblasts)) (UniProt P46940); test: co-IP

binding [3] | Substance | binding [1] | binding [2]
– | p122RhoGAP/DLC-1 (1–546) (from UniProt Q96QB1-2) (domain or fragment) | no binding | no binding
– | p122RhoGAP/DLC-1 (1–801) (from UniProt Q96QB1-2) (domain or fragment) | no binding | no binding
binds | p122RhoGTPase-activating protein (GAP)/deleted in liver cancer-1 (p122RhoGAP/DLC-1) (from UniProt Q96QB1-1) | – | –
